# Out of some 400,000 compounds screened, about 5,500 (1.4%) were called active. Inconclusive means that the source gave no clear call. Such entries were picked first, then a sample of the others. Calls follow the shape of the dose curve; as a rule, active = well fitted cell-killing curve with a large enough effect; inconclusive = small, poorly fitted or top-dose-only effect, or effect the other way; inactive = flat fitted curve, though single readings scatter. A potency beside an inconclusive call is a rough fit, not a confirmed value.
# Test: qHTS assay for MDR1-selective chemotherapeutics: Primary screen using the parental adenocarcinoma cell KB-3-1; also: nearly all actives have a fitted effect of over 60% in size
# Conditions: KB-3-1 viability, CellTiter-Glo ATP luminescence, 72 h; activity change, negative = cytotoxic: at 46.1 µM (top of the series)
# Outline: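 KB-3-1 parental drug-naive adenocarcinoma cells in DMEM/10% FBS, incubated 72 h at 37 C with pin-transferred compounds across a concentration series. Viability by CellTiter-Glo luminescence; concentration-response curves fitted after normalization.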
# % is scaled to controls: 0 for no effect and ±100 for the full control effect; potency is read from the fitted curve at half-maximal effect.
SMILES,"activity change, negative = cytotoxic",Potency
Cc1ccccc1C(=O)NC1CC2CCCC(C1)N2CC(C)C (centres undefined),inactive: 0.402%,–
COC(=O)c1ccccc1NC(=O)CN1CCC(n2nnc3cc(C(F)(F)F)ccc32)CC1,–,"inconclusive: 0.0058 µM [rising, full curve, poor fit]"
CCOC1=C2CN(S(=O)(=O)c3ccc(C)cc3)C(c3ccccc3)CC2N(S(=O)(=O)c2ccc(C)cc2)C(c2ccc(Br)cc2)C1 (centres undefined),–,"inconclusive: 7.31 µM [cytotoxic, partial curve]"
COc1ccc2nc(SCC(=O)O)nc(C)c2c1,inactive: -5.26%,–
Cn1c(=S)[nH]c2scc(-c3cccs3)c2c1=O,–,"inconclusive: 14.6 µM [cytotoxic, partial curve]"
O=C(CSc1ccc([N+](=O)[O-])cc1)Nc1cccc(S(=O)(=O)Nc2ccccc2F)c1,inactive: -18.5%,–
CCCCNC(=O)C1C(c2ccc(C(F)(F)F)cc2)=Nc2ccccc2N1C(=O)C1CCN(C(C)=O)CC1 (centres undefined),inactive: 0.0285%,–
COn1c(SCc2cccc(Cl)c2)nc2ccccc2c1=O,–,"inconclusive: 16.4 µM [cytotoxic, single point]"
Cc1cc(C)c(CN2CCCC(CNC(=O)c3ccc(F)cc3)C2)c(-n2cccn2)c1 (centres undefined),inactive: -1.28%,–
COC(=O)[C@H](Cc1ccccc1)N(Cc1ccc(C)cc1)S(C)(=O)=O,–,"inconclusive: 29.1 µM [cytotoxic, single point]"
CCOC(=O)[C@]12CCCC=C1N(Cc1ccc(Cl)cc1Cl)C(=O)[C@H](CC(=O)NCc1ccccc1)C2,–,"inconclusive: 18.4 µM [cytotoxic, partial curve, poor fit]"
CC1CCCN(CCCN2C(=O)C3C(C(=O)Nc4cccc(Cl)c4)C4C=CC3(O4)C2C(=O)NC2CCCCC2)C1 (centres undefined),–,"inconclusive: 23.1 µM [cytotoxic, single point]"
Cc1cc(C)nc(N/N=C/C2=C(N3CCOCC3)C(=C\c3ccc(Cl)cc3)/CC2)n1,–,"inconclusive: 29.1 µM [cytotoxic, single point]"
COc1ccc(NC(=O)c2c(N)no[n+]2[O-])cc1,–,"inconclusive: 10.3 µM [cytotoxic, partial curve, poor fit]"
COc1ccc(N2CCN(C(=O)Cn3cnc4sc(C)c(S(=O)(=O)N5CCC(C)CC5)c4c3=O)CC2)cc1,inactive: -1.15%,–
CCn1ncc(Br)c1C(=O)Nc1cc(C(=O)OC)ccc1C(=O)OC,inactive: 4.42%,–
CC(C)(C)S(=O)(=O)/C(C#N)=N/Nc1ccc(C#N)cc1,–,"inconclusive: 29.1 µM [cytotoxic, single point]"
CCN(CC)c1ccc(-c2nc3cnccn3c2NC2CCCC2)cc1,–,"inconclusive: 29.1 µM [cytotoxic, single point]"
O=C(Cc1cccs1)NNC(=S)NC(=O)c1ccco1,–,"inconclusive: 25.9 µM [cytotoxic, single point]"
O=C1C(=O)N(CC2COc3ccccc3O2)c2ccccc21 (centres undefined),–,"inconclusive: 29.1 µM [cytotoxic, single point]"
COc1cc(/C=C/c2ccc3ccccc3n2)cc(OC)c1OC,–,active: 2.59 µM
COc1cccc(NC(=O)COC(=O)c2c(F)cccc2Cl)c1,–,"inconclusive: 29.1 µM [rising, partial curve, poor fit]"
O=c1[nH]c(-c2ccc(-c3cccc(Cl)c3)o2)nc2ccccc12,inactive: -0.0213%,–

SMILES,"activity change, negative = cytotoxic",Potency
Cn1cc(C2NC(=O)c3ccccc3N2)c2ccccc21 (centres undefined),–,active: 1.16 µM
COc1ccc(C=CC(=O)c2ccc([N+](=O)[O-])cc2)cc1,inactive: -1%,–
O=C1CC(c2ccccc2)=NN1c1ccc([N+](=O)[O-])cc1,–,"inconclusive: 32.6 µM [cytotoxic, single point]"
Cc1ccc(NS(=O)(=O)c2cc3c(cc2F)NC(=O)CC3)cc1Cl,–,"inconclusive: 0.0146 µM [rising, full curve, poor fit]"
COC(=O)[C@@]1(C(C)C)N=C(c2cc(OC)c(OC)c(OC)c2)[C@]2(O1)C(=O)Nc1ccc(F)cc12,inactive: -0.241%,–
COc1ccccc1CNC(=O)Cn1c(=O)ccc2cc(S(=O)(=O)N3CCC(C)CC3)ccc21,inactive: 10.8%,–
O=C(NCc1csc2ccc(Cl)cc12)Nc1cccc2ccccc12,inactive: -9.03%,–
Fc1ccccc1C1c2[nH]c3ccccc3c2CCN1Cc1cccn1-c1ncccn1 (centres undefined),–,"inconclusive: 32.6 µM [cytotoxic, single point]"
O=C(CNC(=O)c1ccccc1)NCC(=O)OCC(=O)c1cccc2ccccc12,–,"inconclusive: 23.1 µM [rising, partial curve]"
COC(=O)c1c(C)oc2c1cc(NS(=O)(=O)c1c(C)cc(C)cc1C)c1ccccc12,–,"inconclusive: 32.6 µM [cytotoxic, single point]"
CCCC(NC(=O)CCl)c1ccccc1 (centres undefined),inactive: 0%,–
CC1(C(=O)Nc2cccc(OC(F)(F)F)c2)Cc2c(-c3ccc4c(c3)OCO4)ccnc2O1 (centres undefined),–,"inconclusive: 29.1 µM [cytotoxic, single point]"
Cc1cc(C)cc(C(=O)C[n+]2cccc(Br)c2)c1,inactive: 10.8%,–
COc1ccc(C2NCCc3cc(OC)c(OC)cc32)cc1OC (centres undefined),inactive: 13.8%,–
CC(C)Oc1ccc(C(=O)Nc2ccc3oc(-c4ccncc4)nc3c2)cc1,–,"inconclusive: 2.59 µM [cytotoxic, partial curve]"
CCCNc1nc(-c2ccccc2)c(C(=O)OCC)cc1C#N,–,"inconclusive: 2.31 µM [cytotoxic, full curve, poor fit]"
CCCC(CNC(C)=O)(C1=CCCCC1)c1ccccc1 (centres undefined),inactive: 13.1%,–
COc1ccc(C(=O)N(C)c2ccccc2C(=O)NCCc2ccccc2)cc1,–,active: 2.91 µM
C#CCN(C[C@H]1[C@H](OC(=O)NC2CCCC2)[C@H](OC(=O)NC2CCCC2)C[C@@H](C(=O)OC)[C@H]1C(=O)OC)S(=O)(=O)c1ccc(C)cc1,–,"inconclusive: 18.4 µM [cytotoxic, single point]"
COc1ccc(C(CC(=O)NC(C)c2ccc(-c3ccccc3)cc2)NC(C)=O)cc1 (centres undefined),–,"inconclusive: 16.4 µM [cytotoxic, single point]"
CC(=O)Nc1ccc(S(=O)(=O)N2c3ccccc3C(C)=CC2(C)C)cc1,–,active: 3.26 µM
C(#CC12CC3CC(CC(C3)C1)C2)CN1CCOCC1,–,"inconclusive: 10.3 µM [cytotoxic, partial curve]"
Cc1cc2oc(C(=O)NCCc3ccc(S(N)(=O)=O)cc3)c(C)c2cc1C,–,"inconclusive: 20.6 µM [rising, partial curve, poor fit]"

SMILES,"activity change, negative = cytotoxic",Potency
CN1CCC(N(C)S(=O)(=O)c2ccc(NC(=O)COc3ccc(Br)cc3Cl)cc2)CC1,–,"inconclusive: 25.9 µM [cytotoxic, partial curve, poor fit]"
CCc1cc(C(=O)N2CCCC(C(=O)c3ccc(C(F)(F)F)cc3)C2)n(C)n1 (centres undefined),inconclusive: -45.3% [cytotoxic],–
O[C@@H]1CN(Cc2cccs2)[C@@H](c2ccccc2)C[C@H]1n1cc(-c2ccc(F)cc2)nn1,–,"inconclusive: 20.6 µM [cytotoxic, single point]"
CCCOc1ccc(-c2nonc2NC(=O)COc2ccc(C)cc2)cc1OCCC,inactive: -3.71%,–
CC1CCN(c2ccc(-c3cccc(NS(=O)(=O)c4ccc(Cl)s4)c3)nn2)CC1,inactive: 0.277%,–
O=C(O)c1ccc2c(=O)n3c(nc2c1)/C(=C/c1ccc(Cl)c([N+](=O)[O-])c1)CC3,–,"inconclusive: 18.4 µM [rising, single point]"
COc1ccc(OCC(=O)OC(C)CN2CCCCC2)cc1 (centres undefined),inactive: 1.58%,–
CC(C)(C)NC(=O)Cn1cc(S(=O)(=O)Cc2ccc(F)cc2)c2ccccc21,–,"inconclusive: 20.6 µM [rising, partial curve, poor fit]"
Cc1ccc(C)c(N2CCN(C(=O)c3ccc(CSc4nc5ccncc5[nH]4)cc3)CC2)c1,–,"inconclusive: 20.6 µM [cytotoxic, single point]"
CC(=O)c1c(C)oc2c(Cl)cc(NS(=O)(=O)c3cc(C)c(C)cc3C)cc12,inactive: 13.7%,–
COc1ccc(/C=C2\CN(Cc3ccccc3)C/C(=C\c3ccc(OC)c(O)c3)C2=O)cc1O,–,active: 5.17 µM
Fc1ccc(N2N=C(c3cccs3)CC2c2ccco2)c(F)c1 (centres undefined),–,"inconclusive: 32.6 µM [cytotoxic, single point]"
OC1(c2cccc(C(F)(F)F)c2)CCN(c2ncnc3c2[nH]c2ccc(F)cc23)CC1,inactive: 0%,–
Cc1cc(-c2ccccc2)nc2[n+]1CCN2C,–,"inconclusive: 9.2 µM [cytotoxic, partial curve, poor fit]"
COc1ccccc1NC(=S)NCCSc1ccc(C)cc1,inactive: -9.87%,–
Cc1ccc(S(=O)(=O)N2CCCCC2CCNC(=O)C(=O)Nc2ccccc2F)cc1 (centres undefined),–,active: 7.31 µM
CC(C)NC(=O)CCNS(=O)(=O)c1ccc(Br)cc1,–,"inconclusive: 13 µM [cytotoxic, single point]"
CCOC(=O)CCc1c(C(=O)OCC)[nH]c(CC)c1C(=O)OCc1ccccc1,inactive: -1.75%,–
COc1ccc(CN(C(=O)c2nsc(Cl)c2Cl)C(C(=O)NC2CCCC2)c2ccc(C)cc2)cc1 (centres undefined),–,"inconclusive: 29.1 µM [cytotoxic, single point]"
CC(=O)NC(=S)NNC(=O)C(c1ccccc1)c1ccccc1,–,"inconclusive: 16.4 µM [cytotoxic, single point]"
COc1ccc(-n2cc(-c3ccccc3)[n+]3c2CCCCC3)cc1,–,"inconclusive: 8.2 µM [cytotoxic, partial curve, poor fit]"
Cc1ccc(Cn2ccc(NC(=O)c3nn(C)cc3Cl)n2)cc1,–,"inconclusive: 29.1 µM [rising, single point]"
O=S(=O)(O)c1cc(O)c2c(O)c(N=Nc3cc(Cl)ccc3O)c(S(=O)(=O)O)cc2c1,–,active: 14.6 µM

# Grouped by structure, the entries above with a cyano group (2)
SMILES,"activity change, negative = cytotoxic",Potency
CC(C)(C)S(=O)(=O)/C(C#N)=N/Nc1ccc(C#N)cc1,–,"inconclusive: 29.1 µM [cytotoxic, single point]"
CCCNc1nc(-c2ccccc2)c(C(=O)OCC)cc1C#N,–,"inconclusive: 2.31 µM [cytotoxic, full curve, poor fit]"

# From PubChem BioAssay AID1347075 (National Center for Advancing Translational Sciences (NCATS), 2019)
